From PubChem BioAssay AID540276 (National Center for Advancing Translational Sciences (NCATS), 2011)
Several values for one entry are separate records, joined by “and”; a condition that tells them apart may be missing. Equal entries are not always repeated. The campaign covered roughly 300,000 compounds. About 5,400 (1.8%) were called active. Inconclusive results, whose numbers are uncertain, are shown with a selection of clear calls. Calls follow the shape of the full dose curve; tested in HEK293 cells. A potency beside an inconclusive call is a rough fit, not a confirmed value.
Potency is read from the fitted curve at half-maximal effect.

Test: qHTS for inhibitors of binding or entry into cells for Marburg Virus
Details: Marburg virus pseudotyped entry inhibition, cell reporter; series mostly up to 37.8 µM
For `COC(=O)C(C(C)=O)C(=O)C(Cc1ccccc1)NC(=O)OCc1ccccc1` (centres undefined), the Potency was inconclusive: 0.0106 µM [activator, full curve, poor fit]. For `COc1cc(OC)c(NC(=O)CS(=O)(=O)Cc2nc(-c3ccc(C)cc3)oc2C)cc1Cl`, the Potency was “inactive”. With `S=c1[nH]nc(CN2CCCC2)n1Cc1ccccc1` the Potency was inconclusive: 2.82 µM [inhibitor, single point]. In the case of `COc1cc(OC)c(C(=O)CCC(=O)O)cc1OC`, the Potency is reported as inconclusive: 7.08 µM [activator, full curve, poor fit]. In the case of `CS(=O)(=O)N(Cc1ccc(C(=O)NCCSCc2ccco2)cc1)c1ccccc1`, the Potency is reported as inconclusive: 8.2 µM [activator, partial curve, poor fit]. In the case of `CCOC(=O)N1CCC(N2CCN(Cc3ccccc3)C(CCO)C2)CC1` (centres undefined), the Potency is reported as “inactive”. In the case of `Cc1c(C)n(C)c2ccc(C(=O)NCCCN3CCN(c4ccccc4F)CC3)cc12`, the Potency is reported as inconclusive: 11.2 µM [inhibitor, partial curve, poor fit]. With `Nc1ncc(-c2ccccc2)n1CC1CCCO1` (centres undefined) the Potency was inconclusive: 6.51 µM [inhibitor, single point]. With `O=C(Nc1cccc(S(=O)(=O)N2CCOCC2)c1)c1cc2c(s1)CCC2` the Potency was “inactive”. With `COc1ccc2c(c1OC)CN(C)CCc1cc3c(cc1C(O)C2)OCO3` (centres undefined) the Potency was “inactive”. For `CCCCn1c(C)cc2cc(O)ccc21`, the Potency was inconclusive: 2 µM [inhibitor, full curve, poor fit]. In the case of `C=CCn1c(Cc2cccs2)nnc1SCC(=O)NCc1ccco1`, the Potency is reported as “inactive”. For `O=C(N/N=C\c1cccc(Cl)c1)c1n[nH]c2c1CCCC2`, the Potency was inconclusive: 7.08 µM [inhibitor, partial curve, poor fit]. With `CCn1c(=O)c(=O)[nH]c2cc(C(=O)NC3CCCC3)ccc21` the Potency was inconclusive: 2.24 µM [inhibitor, partial curve, poor fit]. For `O=C(Cn1cccc(C(F)(F)F)c1=O)c1ccc(Cl)cc1`, the Potency was inconclusive: 35.5 µM [activator, single point]. For `C=C1C(=O)C23CCC4C(C)(C(=O)OC)CCCC4(C)C2CCC1(O)C3` (centres undefined), the Potency was inconclusive: 3.16 µM [inhibitor, full curve, poor fit]. For `COc1ccc(CN2C3CCCC2CC(NC(=O)/C=C/c2ccccc2)C3)cc1` (centres undefined), the Potency was inconclusive: 3.98 µM [inhibitor, partial curve, poor fit]. In the case of `Cc1cc(/C=C2\SC(=S)N(Cc3ccco3)C2=O)c(C)n1-c1ccccc1`, the Potency is reported as inconclusive: 25.1 µM [inhibitor, single point]. For `CCN1CCN(c2nc3c(c(=O)n(C)c(=O)n3C)n2CCSc2nccc(C)n2)CC1`, the Potency was inconclusive: 0.58 µM [activator, full curve, poor fit]. For `O=C(Cn1c(=O)oc2ccccc21)Nc1ccccc1Cl`, the Potency was “inactive”. For `Cn1ncc(N=Cc2ccccc2[N+](=O)[O-])c1C(N)=O`, the Potency was inconclusive: 0.1 µM [inhibitor, full curve, poor fit]. With `COc1cc(COc2ccc3c(C)c(Cc4ccccc4)c(=O)oc3c2)cc(OC)c1OC` the Potency was “inactive and inconclusive: 2.82 µM [inhibitor, full curve, poor fit]”. With `CCn1nnc(NC(=O)COc2ccc([N+](=O)[O-])cc2)n1` the Potency was “inactive”. With `Cc1cccnc1Nc1nc(-c2ccccn2)cs1` the Potency was inconclusive: 2.51 µM [inhibitor, full curve, poor fit]. With `CCOC(=O)N1CCC(NC(=O)c2ccc3c(c2)N(Cc2ccc(F)cc2)C(=O)c2ccccc2S3=O)CC1` (centres undefined) the Potency was “inactive”. For `COc1ccc(CCNC(=O)c2nc(SCc3ccc(F)cc3)ncc2Cl)cc1OC`, the Potency was inconclusive: 12.6 µM [inhibitor, partial curve]. For `CCOC(=O)C1=C(CC)OC(N)=C(C#N)C1c1cccs1` (centres undefined), the Potency was “inactive”. With `O=C(OCc1nnc(-c2ccc(Cl)cc2)o1)c1ccc(O)cc1` the Potency was inconclusive: 3.16 µM [inhibitor, partial curve, poor fit]. For `Cc1nc2nc(COc3ccccc3)[nH]n2c(=O)c1C`, the Potency was inconclusive: 0.0052 µM [inhibitor, full curve, poor fit]. With `CCc1ccc(NC(=O)Cn2c(C(=O)OC)cc3oc(C)cc32)cc1` the Potency was “inactive”. In the case of `CCOc1ccc(S(=O)(=O)N(C)c2ccc(OCC(=O)Nc3ccc4[nH]c(=O)[nH]c4c3)cc2)cc1`, the Potency is reported as “inactive”. For `COc1ccc(C2CC(=O)Nc3cc4c(cc32)OCO4)c(OC)c1` (centres undefined), the Potency was inconclusive: 14.1 µM [inhibitor, single point]. With `CCN1CCN(Cc2nc3cc(NC(=O)c4cccc([N+](=O)[O-])c4)ccc3n2CC)CC1` the Potency was inconclusive: 6.31 µM [inhibitor, partial curve, poor fit]. With `COc1cccc(C2C(C#N)=C(N)N(N(C)C)C3=C2C(=O)CC(C)(C)C3)c1OC` (centres undefined) the Potency was “inactive”. In the case of `COc1cc(/C=N/NC(=O)c2cc(-c3cccc(OC(C)C)c3)nc3ccccc23)ccc1O`, the Potency is reported as active: 3.55 µM. For `COc1ccc(Nc2cc(C(=O)NCCCN3CCOCC3)c3ccccc3n2)cc1OC`, the Potency was “inactive”. In the case of `Cc1ccc(S(=O)(=O)CC(=O)Nc2nc(C(C)(C)C)cs2)cc1`, the Potency is reported as “inactive”. In the case of `Cc1ccc(OCCOC(=O)c2c(-c3ccccc3)noc2C)cc1`, the Potency is reported as inconclusive: 10 µM [inhibitor, partial curve, poor fit]. With `COc1ncccc1C(=O)NC1CCCc2c1cnn2-c1cc(C)cc(C)c1` (centres undefined) the Potency was inconclusive: 15.8 µM [inhibitor, partial curve, poor fit]. In the case of `Cc1ccc(OCc2nnc(NC(=O)c3ccco3)s2)c(C)c1`, the Potency is reported as “inactive”. In the case of `CC1(C)CC(NCCC(c2ccccc2)c2ccco2)CCO1` (centres undefined), the Potency is reported as inconclusive: 11.2 µM [inhibitor, single point]. In the case of `O=C(Cc1ccccc1)Nc1nc2ccccc2s1`, the Potency is reported as inconclusive: 28.2 µM [activator, single point]. In the case of `CC1Sc2ccc(S(=O)(=O)N3CCC(C(=O)Nc4cccc(Cl)c4)CC3)cc2NC1=O` (centres undefined), the Potency is reported as inconclusive: 5.01 µM [inhibitor, full curve, poor fit]. In the case of `COC(=O)c1cc(-c2ccccc2)sc1NC(=O)CN1C(=O)c2ccccc2C1=O`, the Potency is reported as “inactive”.
